Laboratory results: PMC12033163 (Nano Convergence, 2025)
HELM strings list residues between dots; [ac] is acetyl, [am] amide, other brackets name non-standard units.

Assay: peptide synthesis
Conditions: conjugation step

## PEPTIDE1{[ac].F.R.R.F.[deBocDTX]}$$$$V2.0
  conjugation yield: 35%
HPLC
  final HPLC purity: approximately 98%
